Experimental data taken from patent US7964613B2 (Asahi Kasei Pharma Corporation, priority 2007, dated 2011).
Some of these results come from one statement about several compounds together. At least one compound was matched to its structure with a doubt left.

Tested on: rabbit normal intraocular pressure
Test: Intraocular pressure reducing action
Assay type: in vivo, Japanese white rabbit
Settings: 3 mM aqueous solution, 50 μl to the left eye; max IOP reduction (2, 4, 6 hours) / value immediately before administration
Description: A Japanese white rabbit having a body weight of about 2 kg was placed in a positioner and naturalized for one week before the experiment. An opthalmologic local anesthesant (Benoxil) was administered to both eyes, and then intraocular pressure was measured by using a tonometer (Classic 30, Solan). A 3 mM aqueous solution of a test compound was administered in a volume of 50 μl to the left eye, and the right eye was not treated (control eye). The intraocular pressure values were measured for the left and right eyes immediately before, and 2, 4 and 6 hours after the administration of the aqueous solution of the test compound, and the difference of the measured values for the left and right eyes was considered an intraocular pressure reduction value of the test medicament at each measurement time. The largest difference of the values for the left and right eyes among the measured values at the measurement times (after 2, 4 and 6 hours) was considered the maximum intraocular pressure reduction value (max ? IOP) of each test medicament. The intraocular pressure reducing degree representing the intraocular pressure reducing action of each test medicament was calculated according to the following formula. Since rabbits show significant daily variation of intraocular pressure, daily variation is added when change of intraocular pressure is measured over time, and the intraocular pressure reducing action may be overestimated. Therefore, we used this calculation method of intraocular pressure reduction value in order to minimize the influence of the variation. Intraocular pressure reducing degree(%)=(max ? IOP/Intraocular pressure value immediately before administration)×100

| SMILES | intraocular pressure reducing degree |
| --- | --- |
| N[C@H]1CCN(S(=O)(=O)c2cccc3cncc(C#CCO)c23)C1 [Example 28-1, (S)-3-Amino-1-[4-(2-hydroxymethyl)ethynyl-5-isoquinolinesulfonyl]pyrrolidine] | ≥ 20% |

Same assay, conditions: test compound of 1 mM, same test as Test Example 3

| SMILES | intraocular pressure reducing degree |
| --- | --- |
| N[C@H]1CCN(S(=O)(=O)c2cccc3cncc(Br)c23)C1 [Example 1-1, (S)-3-Amino-1-(4-bromo-5-isoquinolinesulfonyl)pyrrolidine] | ≥ 20% |
| O=S(=O)(c1cccc2cncc(Br)c12)N1CC[C@H](NCc2ccco2)C1 [Example 4-1, (S)-3-(2-Furylmethyl)amino-1-(4-bromo-5-isoquinolinesulfonyl)pyrrolidine] | ≥ 20% |
| Cc1cncc2cccc(S(=O)(=O)N3CC[C@H](N)C3)c12 [Example 8-1, (S)-3-Amino-1-(4-methyl-5-isoquinolinesulfonyl)pyrrolidine] | ≥ 20% |
| C#Cc1cncc2cccc(S(=O)(=O)N3CC[C@H](N)C3)c12 [Example 10-1, (S)-3-Amino-1-(4-ethynyl-5-isoquinolinesulfonyl)pyrrolidine] | ≥ 20% |
| N[C@H]1CCN(S(=O)(=O)c2cccc3cncc(F)c23)C1 [Example 18-1, (S)-3-Amino-1-(4-fluoro-5-isoquinolinesulfonyl)pyrrolidine] | ≥ 20% |
| N[C@H]1CCN(S(=O)(=O)c2cccc3cncc(Cl)c23)C1 [Example 19-1, (S)-3-Amino-1-(4-chloro-5-isoquinolinesulfonyl)pyrrolidine] | ≥ 20% |
